These results are taken from paper PMC9016078.

These are yes or no findings as the source states them, for the method shown. Binding seen in cells or lysates may run through a third protein. Some binding calls cover weakened binding; strength is not graded here.

For assay [1], the target named is T1, gamma-aminobutyric acid A receptor (GABAAR) γ2 subunit, wild type (mouse (endogenous in liver)) (UniProt P22723).
T1 sequence: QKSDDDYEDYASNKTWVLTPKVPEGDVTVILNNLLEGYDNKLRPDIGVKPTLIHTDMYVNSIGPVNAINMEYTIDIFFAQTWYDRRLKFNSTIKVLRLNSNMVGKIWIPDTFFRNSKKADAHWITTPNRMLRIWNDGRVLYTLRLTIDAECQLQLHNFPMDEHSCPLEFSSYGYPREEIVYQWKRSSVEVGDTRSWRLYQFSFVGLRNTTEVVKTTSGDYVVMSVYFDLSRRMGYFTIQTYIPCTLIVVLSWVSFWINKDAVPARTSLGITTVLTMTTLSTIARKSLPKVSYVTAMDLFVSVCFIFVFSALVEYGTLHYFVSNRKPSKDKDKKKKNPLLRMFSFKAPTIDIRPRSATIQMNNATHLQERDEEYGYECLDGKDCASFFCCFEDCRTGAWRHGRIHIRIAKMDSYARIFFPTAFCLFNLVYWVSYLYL
The assay is described as follows: co-IP; liver protein extracts (500 μg) of mice on high-fat diet; IP with goat polyclonal GABAAR γ2 antibody (3 μg) or isotype IgG on protein A/G-Sepharose, overnight 4 °C, three PBS washes; immunoblot for GABAAR γ2 and ACBP. For orientation: A western blot detects proteins with antibodies after separation by electrophoresis.

The target of assay [2] is T2, gamma-aminobutyric acid A receptor (GABAAR) γ2 subunit F77I (mouse (endogenous in liver)) (UniProt P22723).
T2 sequence: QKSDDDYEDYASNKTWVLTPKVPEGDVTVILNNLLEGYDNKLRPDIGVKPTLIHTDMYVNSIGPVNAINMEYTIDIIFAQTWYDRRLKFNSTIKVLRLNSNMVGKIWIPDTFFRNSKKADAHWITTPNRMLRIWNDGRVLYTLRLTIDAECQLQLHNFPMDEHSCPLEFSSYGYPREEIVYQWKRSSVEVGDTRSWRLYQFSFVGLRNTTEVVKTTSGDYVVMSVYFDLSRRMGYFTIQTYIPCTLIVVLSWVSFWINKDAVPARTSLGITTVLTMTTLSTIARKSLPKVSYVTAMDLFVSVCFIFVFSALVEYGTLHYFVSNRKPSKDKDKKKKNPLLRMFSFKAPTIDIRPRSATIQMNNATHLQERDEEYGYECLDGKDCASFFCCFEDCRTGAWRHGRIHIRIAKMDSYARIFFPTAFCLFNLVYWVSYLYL
Described as above.

B1: Acyl-coenzyme-A-binding protein (ACBP) (protein, UniProt P31786 1-87)
chain: MSQAEFDKAAEEVKRLKTQPTDEEMLFIYSHFKQATVGDVNTDRPGLLDLKGKAKWDSWNKLKGTSKESAMKTYVEKVDELKKKYGI
Take B1: the binding result is recorded as “binds” in assay [1] and “no binding” in assay [2].
